The other results are listed elsewhere or left out.

This note sets out measurements from PMC7819943, “Rice protein-binding microarrays: a tool to detect cis-acting elements near promoter regions in rice”.

In the assay the target is T1, OsSMF1 (Oryza sativa, UniProt Q6ZLB0 1-436).
T1 sequence: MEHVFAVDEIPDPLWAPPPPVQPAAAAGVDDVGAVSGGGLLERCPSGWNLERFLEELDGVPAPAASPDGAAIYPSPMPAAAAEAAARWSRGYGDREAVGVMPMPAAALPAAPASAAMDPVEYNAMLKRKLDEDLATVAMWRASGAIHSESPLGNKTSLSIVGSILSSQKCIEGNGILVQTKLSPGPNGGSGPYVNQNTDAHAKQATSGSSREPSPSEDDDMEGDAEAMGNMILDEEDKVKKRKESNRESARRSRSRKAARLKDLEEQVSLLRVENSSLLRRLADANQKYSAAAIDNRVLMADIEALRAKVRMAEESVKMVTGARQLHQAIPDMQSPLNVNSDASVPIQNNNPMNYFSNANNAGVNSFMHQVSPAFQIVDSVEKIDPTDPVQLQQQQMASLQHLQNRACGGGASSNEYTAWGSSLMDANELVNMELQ
Kind of assay: protein-binding microarray (RPBM); PBS, 2% BSA, 51.3 ng/ul salmon testes DNA, 50 uM zinc acetate, 200 nM TF, 25 C, 1 h; high values mean tight binding. The following applies: protein: recombinant; tags: N-terminal polyhistidine and DsRed monomer fusion (pET32a); chain copies: 2; label: CyDye5-dUTP incorporated in the synthesized complementary strand; 3' TTTTT single-stranded linker to array surface; dsDNA, one strand shown. A digest of the protocol:
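For the binding signal, per-feature fluorescence intensity was read in arbitrary units on an Axon 4000B scanner. Before scanning, a 2% BSA-blocked custom Agilent array made double-stranded with Cy5-dUTP was washed after 1 h at 25 °C with 200 nM protein and 50 µM zinc acetate. The proteins were Ni–NTA-purified transcription factors with N-terminal polyhistidine and DsRed fusions, expressed in E. coli BL21-CodonPlus.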
“GCTTTCCCTAGCGTTTGTTTCCTCTGTGCAGCAACCGCAGCGGAGTCACCTAGTGCAG”: the binding signal is 22300 fluorescence intensity (a.u.).

As for “ACCACGCACACACCACCTGCTCCCGTCCACGCCACGGCGCCGGAGTCACCTAGTGCAG”, the binding signal was 5500 fluorescence intensity (a.u.).

“TATTTGTGCATCTTCTTTACTGAATCATCGTATTCACATGCGGAGTCACCTAGTGCAG”: the binding signal was 5150 fluorescence intensity (a.u.).

On to “ACTATGGATATCTGTTTTAGCTGACATGGCATCCTACTCACGGAGTCACCTAGTGCAG”, for which the binding signal was 8140 fluorescence intensity (a.u.).

With “AGGCGTCGAGAAACGAATACACCGTGGAGATGTGGACGAACGGAGTCACCTAGTGCAG”, the binding signal is 3290 fluorescence intensity (a.u.).

On to “TTTAGTACTAGTGTACTACATAAATGTCTCATCTCCTCCACGGAGTCACCTAGTGCAG”, for which the binding signal was 3960 fluorescence intensity (a.u.).

Consider “GTCGCGGATGGTGGAAAGGGAGGCAGGGGTTGGGCCTTGGCGGAGTCACCTAGTGCAG”, for which the binding signal was 3670 fluorescence intensity (a.u.).

Turning to “ATTGTGATCAGGAAGATATCCAAATCTGTTAAAGAAAACACGGAGTCACCTAGTGCAG”, the binding signal is 25700 fluorescence intensity (a.u.).

Take “ATACACACGCATGCGCTTTGGCACGTTGAAGAGGACGAAGCGGAGTCACCTAGTGCAG”: the binding signal was 9660 fluorescence intensity (a.u.).

“AGGATTAGGTGAAGTTTCTGTCACATCACATGATAGTCATCGGAGTCACCTAGTGCAG”: the binding signal is 4260 fluorescence intensity (a.u.).

For the sequence “CTAAGGGGCTTTGTTCGGCAAACAAAGTTAGGAACAAATCCGGAGTCACCTAGTGCAG”, the binding signal is 4640 fluorescence intensity (a.u.).

Consider “AGTTGTGTGACGTCGTCAGCTAGCTAGCTGCCACTGAGCCCGGAGTCACCTAGTGCAG”, for which the binding signal is 6870 fluorescence intensity (a.u.).

“CACATGGCTGACGGCCCAAACCATCAGACTCAACCATGGCCGGAGTCACCTAGTGCAG”: the binding signal was 3180 fluorescence intensity (a.u.).

With “TGGATACTTGGATGACTGTACTGTACTTGCCTTTCTACTTCGGAGTCACCTAGTGCAG”, the binding signal was 7720 fluorescence intensity (a.u.).

With “TCATGTGAAGCTTAATTAGTTAGATAGGTCACCGCTCACCCGGAGTCACCTAGTGCAG”, the binding signal is 3340 fluorescence intensity (a.u.).

Take “ATGTCGCACCCGCTTGTCCCCTCCTGACTTCGATTCGCCGCGGAGTCACCTAGTGCAG”: the binding signal is 14600 fluorescence intensity (a.u.).

Regarding “AGTTTCACATAATTTTGAATCGTTAGATCTATTACAAGATCGGAGTCACCTAGTGCAG”, the binding signal was 15600 fluorescence intensity (a.u.).

As for “GGCAGCCGTGTGACAGTGGTAGGGAGTGTCATCGCCGACGCGGAGTCACCTAGTGCAG”, the binding signal is 4320 fluorescence intensity (a.u.).

Turning to “CCATCTCCACCGAGTCACACCTTGACTTAACACGTCACCTCGGAGTCACCTAGTGCAG”, the binding signal is 22200 fluorescence intensity (a.u.).

Consider “GAGCCTAGTCGAGTTGGTCACGAGTCAAGCCAAGTCAAGTCGGAGTCACCTAGTGCAG”, for which the binding signal is 3670 fluorescence intensity (a.u.).

With “TGCCCTCTCCCGCTGATTGGAGTAGCGTTACCTGTCGTACCGGAGTCACCTAGTGCAG”, the binding signal was 3550 fluorescence intensity (a.u.).

In the case of “GGCGGTTTTGGCCGACGTGGCGCCTATATGGCTAATTTGACGGAGTCACCTAGTGCAG”, the binding signal was 9270 fluorescence intensity (a.u.).

Take “AAACACGCGGCATGGCGTGCCGCGATGCAGTCGGAGATGGCGGAGTCACCTAGTGCAG”: the binding signal was 48600 fluorescence intensity (a.u.).

As for “AATAAGCCGCCTCCCGCGTGTCCACCCCTCTTGCCTCTGCCGGAGTCACCTAGTGCAG”, the binding signal is 4110 fluorescence intensity (a.u.).

“ATACTAATAGTATAGTAAGCAACTATTGTATGAATTGGCTCGGAGTCACCTAGTGCAG”: the binding signal was 3740 fluorescence intensity (a.u.).

Take “GGCCTAACTGTCCTATGCGCTAGTCGCCTCCGACCAAACGCGGAGTCACCTAGTGCAG”: the binding signal was 3350 fluorescence intensity (a.u.).

With “GTGGCGTTGGCGGGGCCCGCGTGTGGCTACGCAGCTCCGGCGGAGTCACCTAGTGCAG”, the binding signal was 3170 fluorescence intensity (a.u.).

“GAAGCTTCATCGGAGCCACTATGACGTTATCTGCTTTCGTCGGAGTCACCTAGTGCAG”: the binding signal was 4870 fluorescence intensity (a.u.).

Take “ATGCCATGTCATGTTGAATTTTGGATCGGTGTTGGTATATCGGAGTCACCTAGTGCAG”: the binding signal was 8930 fluorescence intensity (a.u.).

Turning to “AAGAAAGCGGCCTTCTCCTCCAGCTCCACCTCACGCGCGCCGGAGTCACCTAGTGCAG”, the binding signal was 5690 fluorescence intensity (a.u.).

Regarding “CATTTTACTAGTTTTGATTATATGACATCTGCAGATTTCGCGGAGTCACCTAGTGCAG”, the binding signal was 4360 fluorescence intensity (a.u.).

With “CCGCACAAGAATGTCGTGTCCTGGACGACCGTCGTCGCTGCGGAGTCACCTAGTGCAG”, the binding signal is 3810 fluorescence intensity (a.u.).

Turning to “GACCGAGAGACAGAGAGCGCGAGCACGGAATGCTCCGCAGCGGAGTCACCTAGTGCAG”, the binding signal was 32800 fluorescence intensity (a.u.).

“CGGACAGGCGCCGCCTCCTGGATCTGCTCCTGGTGGGTATCGGAGTCACCTAGTGCAG”: the binding signal was 3380 fluorescence intensity (a.u.).

As to “GTACTGTCGCCTGCGCGTCACCGCCGCCTGCTCACCGTTCCGGAGTCACCTAGTGCAG”, the binding signal is 3760 fluorescence intensity (a.u.).

With “AATTTTAATACAAATTCTCATATGAATGTTGTTGTGTTAGCGGAGTCACCTAGTGCAG”, the binding signal was 3290 fluorescence intensity (a.u.).

Regarding “GGCCTTTTATGCAAAATTACACCTCGATGACATGTGGGGTCGGAGTCACCTAGTGCAG”, the binding signal is 4300 fluorescence intensity (a.u.).

With “TTTTGGATTCCCTTTTCATCCATGGATGCATGTGTTCCTTCGGAGTCACCTAGTGCAG”, the binding signal is 3220 fluorescence intensity (a.u.).

Consider “ATTGCCAACACACATGGCCATCAGATCACCTTGAACCTACCGGAGTCACCTAGTGCAG”, for which the binding signal is 4640 fluorescence intensity (a.u.).

As to “ATCGCCGACGTGGCAAGCGAAGCGAGGGATCCCCACCCCTCGGAGTCACCTAGTGCAG”, the binding signal was 17700 fluorescence intensity (a.u.).

In the case of “AAGAGATAAAAGGGGAAGAAGTAAAAGTGACATTTCACTGCGGAGTCACCTAGTGCAG”, the binding signal is 3820 fluorescence intensity (a.u.).

In the case of “AAACTATGACCCATTTGTCATACTCGTTGACACTGTACCCCGGAGTCACCTAGTGCAG”, the binding signal is 4010 fluorescence intensity (a.u.).

On to “ACCCCGCTTCCAGTTCTGACTCTGTTGCCTCTCTGCTTTCCGGAGTCACCTAGTGCAG”, for which the binding signal is 4400 fluorescence intensity (a.u.).

“GCCGACGCGAGCTTTCTTGCGTGTTGTAGCTGGAGTGTTCCGGAGTCACCTAGTGCAG”: the binding signal is 3360 fluorescence intensity (a.u.).

Consider “GGCTTTCATACAGGCCCATGAACGTGTATGGGCCTAGGCCCGGAGTCACCTAGTGCAG”, for which the binding signal is 23100 fluorescence intensity (a.u.).

As to “ATTCGGTGTGGTAGTGGGTATACTCGTCCTCCTCTTCGTGCGGAGTCACCTAGTGCAG”, the binding signal was 4770 fluorescence intensity (a.u.).

As to “TGGCAACAAACTGACACTGATTCAGAGTATTGTGATCCTTCGGAGTCACCTAGTGCAG”, the binding signal is 3610 fluorescence intensity (a.u.).

For “CTAGTCGCTTCCGATGATTAAGCTGATGGTTCCTTCCGACCGGAGTCACCTAGTGCAG”, the binding signal is 3170 fluorescence intensity (a.u.).

Consider “CCGTGTTTGAGGTTCGTCATCCGTATTTGAAGTCGGTTTTCGGAGTCACCTAGTGCAG”, for which the binding signal is 4470 fluorescence intensity (a.u.).

Turning to “GCCGCCGCAAGCTGCCCCTCCTCACCCGGCCGCTCCGCCCCGGAGTCACCTAGTGCAG”, the binding signal was 21200 fluorescence intensity (a.u.).

“CCGTCGCCCGAGAGCGAACGGCCGGCTGCCACGTCATTTTCGGAGTCACCTAGTGCAG”: the binding signal was 21100 fluorescence intensity (a.u.).

In the case of “GCAGCTGAACTTTGAGATGTGTGTGACACACATGTGTTTGCGGAGTCACCTAGTGCAG”, the binding signal is 5060 fluorescence intensity (a.u.).

Turning to “CGTCACCTATAATTTTCGCTGGCGGTTATACGTGAAAACCCGGAGTCACCTAGTGCAG”, the binding signal was 3310 fluorescence intensity (a.u.).

As for “GAACAAAAGAGCTCTCACTACTGACATCATCATCAAATTACGGAGTCACCTAGTGCAG”, the binding signal is 5500 fluorescence intensity (a.u.).
